# Results reported in paper PMC7674490.
# The chains behind the UniProt entries cited, without tags or fusion partners. Residues count along the entry.
# UniProt Q80YE7: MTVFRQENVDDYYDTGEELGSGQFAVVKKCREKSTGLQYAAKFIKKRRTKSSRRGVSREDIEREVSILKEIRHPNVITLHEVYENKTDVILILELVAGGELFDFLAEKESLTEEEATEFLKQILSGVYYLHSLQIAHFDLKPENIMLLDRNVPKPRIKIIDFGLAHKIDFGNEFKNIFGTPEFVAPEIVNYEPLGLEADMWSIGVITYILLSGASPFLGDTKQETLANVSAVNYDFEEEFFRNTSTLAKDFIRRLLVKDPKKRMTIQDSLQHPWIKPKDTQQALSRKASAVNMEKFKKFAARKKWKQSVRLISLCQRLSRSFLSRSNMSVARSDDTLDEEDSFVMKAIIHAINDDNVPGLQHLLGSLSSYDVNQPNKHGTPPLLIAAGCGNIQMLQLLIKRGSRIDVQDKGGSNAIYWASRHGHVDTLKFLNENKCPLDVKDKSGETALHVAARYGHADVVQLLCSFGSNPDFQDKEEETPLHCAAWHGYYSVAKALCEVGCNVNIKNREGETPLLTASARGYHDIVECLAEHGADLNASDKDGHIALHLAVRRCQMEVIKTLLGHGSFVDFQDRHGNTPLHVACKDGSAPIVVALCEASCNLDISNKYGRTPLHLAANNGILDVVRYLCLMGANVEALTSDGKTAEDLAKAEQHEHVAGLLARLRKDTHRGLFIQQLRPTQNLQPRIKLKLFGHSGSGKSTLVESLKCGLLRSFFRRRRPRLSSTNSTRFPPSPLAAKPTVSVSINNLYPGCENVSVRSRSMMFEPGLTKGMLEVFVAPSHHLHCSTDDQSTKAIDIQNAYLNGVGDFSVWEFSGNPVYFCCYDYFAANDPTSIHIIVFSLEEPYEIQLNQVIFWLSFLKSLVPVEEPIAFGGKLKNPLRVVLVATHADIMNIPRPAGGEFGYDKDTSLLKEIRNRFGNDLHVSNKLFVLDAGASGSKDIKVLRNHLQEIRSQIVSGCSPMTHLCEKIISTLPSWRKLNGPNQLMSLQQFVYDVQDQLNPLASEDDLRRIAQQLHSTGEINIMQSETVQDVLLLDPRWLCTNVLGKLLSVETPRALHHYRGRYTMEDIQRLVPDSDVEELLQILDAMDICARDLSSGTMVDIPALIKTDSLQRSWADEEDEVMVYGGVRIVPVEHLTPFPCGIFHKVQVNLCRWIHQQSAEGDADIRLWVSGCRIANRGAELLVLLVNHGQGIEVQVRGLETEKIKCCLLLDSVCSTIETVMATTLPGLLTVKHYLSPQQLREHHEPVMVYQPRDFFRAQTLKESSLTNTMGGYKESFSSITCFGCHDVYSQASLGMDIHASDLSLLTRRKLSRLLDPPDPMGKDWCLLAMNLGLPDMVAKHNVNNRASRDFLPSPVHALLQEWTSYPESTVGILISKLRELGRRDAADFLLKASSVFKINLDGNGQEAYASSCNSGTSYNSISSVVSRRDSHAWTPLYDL
# UniProt Q01097, residues 27-1482: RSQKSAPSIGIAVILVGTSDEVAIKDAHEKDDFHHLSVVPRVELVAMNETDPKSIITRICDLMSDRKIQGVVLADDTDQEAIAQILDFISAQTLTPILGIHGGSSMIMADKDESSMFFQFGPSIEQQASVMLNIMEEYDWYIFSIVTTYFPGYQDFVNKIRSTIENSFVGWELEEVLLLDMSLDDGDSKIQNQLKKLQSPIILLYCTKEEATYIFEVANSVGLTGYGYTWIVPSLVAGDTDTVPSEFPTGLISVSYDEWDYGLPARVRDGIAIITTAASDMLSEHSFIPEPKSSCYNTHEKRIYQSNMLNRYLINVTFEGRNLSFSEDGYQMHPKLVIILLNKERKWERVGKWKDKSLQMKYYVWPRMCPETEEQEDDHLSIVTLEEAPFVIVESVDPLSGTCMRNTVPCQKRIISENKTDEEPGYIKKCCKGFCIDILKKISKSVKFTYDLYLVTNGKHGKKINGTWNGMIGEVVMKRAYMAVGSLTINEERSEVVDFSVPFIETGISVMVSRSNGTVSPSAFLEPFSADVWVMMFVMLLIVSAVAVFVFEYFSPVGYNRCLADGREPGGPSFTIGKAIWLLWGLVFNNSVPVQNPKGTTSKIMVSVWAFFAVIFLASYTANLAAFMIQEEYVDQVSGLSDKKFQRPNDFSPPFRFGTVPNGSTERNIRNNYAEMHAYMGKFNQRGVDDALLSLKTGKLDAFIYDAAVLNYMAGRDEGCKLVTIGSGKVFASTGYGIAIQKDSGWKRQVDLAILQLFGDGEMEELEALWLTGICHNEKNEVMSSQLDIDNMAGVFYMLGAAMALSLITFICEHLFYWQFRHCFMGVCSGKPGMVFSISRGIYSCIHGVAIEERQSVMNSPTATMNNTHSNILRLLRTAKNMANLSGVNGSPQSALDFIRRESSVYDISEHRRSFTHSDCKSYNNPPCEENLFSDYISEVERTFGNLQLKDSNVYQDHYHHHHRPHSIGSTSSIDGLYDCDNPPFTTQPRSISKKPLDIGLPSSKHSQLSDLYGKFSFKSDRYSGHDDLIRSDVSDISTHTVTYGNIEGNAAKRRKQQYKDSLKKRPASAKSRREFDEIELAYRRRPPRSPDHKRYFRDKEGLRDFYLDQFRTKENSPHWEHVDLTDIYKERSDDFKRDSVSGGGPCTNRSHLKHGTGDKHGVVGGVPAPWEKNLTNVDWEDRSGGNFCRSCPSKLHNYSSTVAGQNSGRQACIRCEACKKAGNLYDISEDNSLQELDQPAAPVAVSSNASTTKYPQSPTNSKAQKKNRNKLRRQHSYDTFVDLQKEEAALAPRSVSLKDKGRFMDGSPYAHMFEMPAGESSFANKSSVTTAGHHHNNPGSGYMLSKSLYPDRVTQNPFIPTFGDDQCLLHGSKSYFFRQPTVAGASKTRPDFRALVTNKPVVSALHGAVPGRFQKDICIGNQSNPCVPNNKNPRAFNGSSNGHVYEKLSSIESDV
# These are yes or no findings as the source states them, for the method shown. Binding seen in cells or lysates may run through a third protein. Some entries that bind do so weakly or less than the wild type.
# Target: Death-associated protein kinase 1 (mouse (endogenous in cortical tissue)) (UniProt Q80YE7)
# Test: co-IP; rabbit anti-DAPK1 antibody on Protein G Dynabeads; WT and YAC128 mouse cortical tissue in gentle lysis buffer (50 mM Tris, 150 mM NaCl, 1% Igepal), overnight at 4°C; blotted for DAPK1 and GluN2B; control rabbit IgG
substance,measurement,value
NMDA receptor subunit type 2B (from UniProt Q01097 27-1482),binding,binds
